Reference: patent US20170058042A1 (Genentech, published 2017)
No constants are given. Whether binding was seen depends on the method and setting. Some binding calls cover weakened binding; strength is not graded here.

Biological target: T1, human Ly6E coated on ELISA plates (human) (UniProt Q16553)
T1 sequence: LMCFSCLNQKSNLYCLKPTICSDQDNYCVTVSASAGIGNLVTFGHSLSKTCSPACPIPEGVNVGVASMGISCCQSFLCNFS
Assay: ELISA, plates coated with 50 ng human Ly6E per well; hybridoma clones

B1: rabbit anti-Ly6E antibody clone GEN-93-8-1 (antibody, V domains shown)
VH: QSVEESGGRLVTPGTPLTLTCATSGFSLSIYDMTWVRQAPGKGLEWIGVIYTSGGAYYANWAKGRFTISRTSTTVDLRMTSPTTEDTATYFCVRNWAHGSDLWGQGTLVTVSS
VL: DPVVTQTPSSASAAVGGTVSISCQSSQSVYNNNYLGWYQQKPGQPPKLLIYDASKLASGVPSRFKASGSGTQFALTISDLECDDAATYYCVGGYPGSLNVFGGGTEVVVK
notes: Rabbit monoclonal IgG; also called antibody GEN-93-8-1
- binding: binds
